From PubChem BioAssay AID1508600 (Functional Genomics Laboratory (NCATS/FGL), 2020) come the findings set out here.

The whole screen tested about 53,000 sequences, of which about 3,700 (7%) were called active.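 Rule for the calls: active = gene knockdowns whose robust z-score for IL-1 alpha signal is at least 2 or at most -2, so actives lie on both sides; inactive = the rest.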 The list shows a part of the results.

The test in a line: Components of the Cytosolic LPS Sensing Pathway: Gene Identification via Genome-wide siRNA Screen.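 Note: robust z of the log signal after scaling to non-targeting control siRNA wells of the plate.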 The note with it: RAW264.7 macrophages, IL-1a HTRF, actives lie on both sides, screened at 100 nM (by protocol), cells primed 5 h with Pam3CSK4 first. Put shortly:
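Three distinct siRNAs per gene were tested singly at 100 nM in RAW264.7 macrophages. Following Pam3CSK4 priming and 24 hour LipidA transfection, IL-1a secretion was read by HTRF.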
On to GGAGUUCUCGGACUUUCUGTT against C87436, for which the z-score was inactive: 0.179.

GCCAUGCUAGUUUGAUACCTT against Bmp4: the z-score is inactive: -0.164.

For the sequence GGGAUUUUUCCCUUAAUUCTT against Smad4, the z-score was inactive: 0.00716.

Consider “GUCCCUCUUUCUAUGGAGGTT against Krtap19-9b”, for which the z-score is inactive: 0.703.

For the sequence GGCUGUUGUGGAUUUUCUCTT against Olfr698, the z-score is inactive: -1.12.

As for GGAAGAAUUCGAAAAUGUGTT against Efhb, the z-score is inactive: -0.427.

As for GGACAAUAAUGACAACAAATT against Tnrc6b, the z-score is inactive: 0.883.

For UCUCUGUUCUGUAUACAGUTT against Olfr1414, the z-score was inactive: 0.884.

As for GGAAAAAGCCAGGCCUUUUTT against Ptbp3, the z-score was inactive: -0.919.

Turning to GGAGUGAAAUAUGGAGUUGTT against Dhrs7b, the z-score is inactive: 0.787.

Take GGAGAUGCCUUCCAGAUUCTT against Pcdh12: the z-score was inactive: 1.69.

As to GGUCUUCUCUACCUGCUCCTT against Olfr796, the z-score is inactive: 1.06.

On to GGAAACUAAUUUCAAGCCUTT against Hat1, for which the z-score was inactive: 1.19.

In the case of GGCAAAAGAUAUAAGCGGUTT against Mbd3l2, the z-score was inactive: -0.625.

For the sequence GGAGCUGAAAUCCUUUGUUTT against Dnttip1, the z-score is inactive: -0.242.

For GGACUUUUGUGUAUAGUUATT against Smad1, the z-score is inactive: 1.59.

Turning to CCACCCACUAAACCUAAAUTT against Pcolce, the z-score was inactive: 0.136.

Regarding GGUUUUGGAUUUGUGACUATT against Elavl2, the z-score was inactive: -0.993.

For GGAUAAGACUGUUGUCAGATT against Prl8a6, the z-score is inactive: 0.759.

On to GGACUUGUCUUUGACACGCTT against Nt5c2, for which the z-score is inactive: 0.0523.

Regarding GGAAAUGCUUCUGAGCUAGTT against Desi2, the z-score was inactive: 1.71.

Regarding GCCGAACGUGUUUAAACUCTT against Psd3, the z-score is inactive: 0.0404.

As for CGACCAUACGAAUGCGGCATT against Zfp865, the z-score was inactive: 0.498.

Turning to CCGCUUUUGGAACUAUGAGTT against Stard3nl, the z-score is inactive: -0.64.

For GGUCCUUUUUUCAACCAGCTT against Sh3gl1, the z-score is inactive: -0.259.

As to CGAGGAGCUAGCUGUAAAUTT against Gsc, the z-score is inactive: 0.603.

In the case of CCAGAAUGGCGGGUAUUUGTT against Fbln5, the z-score was active: 2.14.

Turning to CCUUAGGAUUUGAACGCGUTT against Cutc, the z-score is inactive: -0.554.

With GGAGUUUUUGUGAGACAAATT against Fam210b, the z-score is inactive: -0.661.

As for GGUACAAUGGCACUGUCACTT against Chrna5, the z-score is inactive: -1.29.

Turning to GGUUUUGGCGGAUACUAAGTT against Plin3, the z-score is inactive: -0.24.

With GCGGAUUGUCUUCCUAGACTT against Smg9, the z-score is inactive: -1.14.

For the sequence GCGAUGCACUGUGUAAACUTT against Ccr6, the z-score was inactive: 0.772.

Regarding GGAAUACGGAAUCAUGGUUTT against Ift52, the z-score was inactive: -0.0653.

As to GGCUGCACAUCUGAGUACCTT against Itgb2l, the z-score is inactive: -1.62.

Consider CCUACUUGCAGAUUGUUUUTT against Rapgef6, for which the z-score is inactive: 0.484.

On to GGAACUGCCUGAAAAAAUGTT against Dcn, for which the z-score was active: -2.76.

CGGCAUUCAGAUUGUCUCUTT against Nup210: the z-score is inactive: -1.22.

For GGCAGAAUUUCAGCAACCUTT against Asgr1, the z-score was inactive: -1.32.

On to GGAGCUAAGGUGGUACGAGTT against Mib2, for which the z-score was inactive: -0.555.

As to GCAUGGAGGAAACCAUUAGTT against Slc38a3, the z-score was inactive: -1.84.

As to GGCCUUGGGCAUACUCAACTT against Star, the z-score was inactive: -0.562.

Take GGAGAGACAGAGACAAAAUTT against Trim26: the z-score is inactive: -0.643.

Turning to GGAAUUGAACAUCAUUUGCTT against Suox, the z-score is inactive: 1.09.

In the case of CCAUUACAUCAGCUUUAUUTT against Pamr1, the z-score was inactive: -0.845.

Regarding GGAAAAGUUAAAGGAAGUCTT against Snrnp35, the z-score was inactive: -1.37.

For the sequence GGAUGACAAGACAUCACUUTT against Yipf2, the z-score is inactive: 0.568.

GGAGCAGCUGAGAGAAAAATT against Ccdc144b: the z-score is inactive: -0.413.

With GGGUAUGCUUCAGUGUUCATT against Nabp2, the z-score is inactive: 1.25.

GGCAUUGUAACCCUUGUAATT against Zscan26: the z-score is inactive: -0.684.

Regarding GCUAUGCUGUUUUAUGUGATT against Synpr, the z-score is inactive: 0.212.

GGAAGUAAAGCUCUACAAGTT against Vps28: the z-score was inactive: 0.236.

GGGAGACGGCGAGGUUUUATT against Arl6ip4: the z-score is active: 2.89.

As for GGCGUGUUUGCUAAUUUAUTT against Pkd1, the z-score is inactive: -0.646.

On to GUUGAAAGUUAACCAAAACTT against H2ac4, for which the z-score is inactive: -1.61.

Take GCGAGAAAAACGAUUCAGCTT against Sptbn2: the z-score was inactive: 0.386.

As to GGCAAAUGUGGCCGUGUUUTT against Ccne1, the z-score was inactive: 0.175.

Take GCAAACUGAAAAAACCCGCTT against Tssk3: the z-score was inactive: 0.366.

Turning to GCAAAAGUAGAAGAACAACTT against Ccnt1, the z-score is inactive: -0.172.

On to GGGUCUGAUCACUUAUAUUTT against Lysmd3, for which the z-score is active: 2.02.

In the case of GGGUACAGUCCGAUACAGUTT against Nploc4, the z-score is inactive: -1.79.

Take GGCAGACAAUCAAUGAAAUTT against Padi4: the z-score was inactive: -0.451.

Regarding GGUUUGAAAAGCGAAUUUATT against Vps4a, the z-score was inactive: -0.151.

Turning to GGUGGAGAAAAAUGCAACATT against Clnk, the z-score is inactive: -0.429.

Consider GGCGCAGAGCAAAGGAUAUTT against Pcdha1, for which the z-score is inactive: 0.197.

For the sequence CCAAUUCCCAAAAUUAGCCTT against Ppm1k, the z-score was inactive: -0.0304.

Consider GGGUUAUCCGUAUGUUUUCTT against Olfr557, for which the z-score is inactive: 0.964.

For GGGCUACUCUCUCAGGAUCTT against Dedd2, the z-score is inactive: 0.676.

For the sequence CCUACCGCUAUGUAGUCAGTT against Dnase1, the z-score is inactive: 0.329.

For CCCUAGCUUUCUUCGAUGUTT against Spag6, the z-score was inactive: 0.162.

Regarding GGAACUGGAUGAAAACGGATT against S100a1, the z-score was inactive: 0.917.

Regarding GGAAAUCCAACUUCUUUCATT against Ebf2, the z-score is active: 2.7.

“GGUGCCUACCAUGAAGAACTT against 1700010D01Rik”: the z-score was inactive: 0.452.

In the case of GCAGCACCAUCACUAGUGUTT against Ndufs6, the z-score was inactive: 0.399.

With GGGCAUUGGAUGUGCUGAATT against Clic3, the z-score was inactive: -0.473.

In the case of GCUAAAUUUCCCAUAGGAATT against Pmch, the z-score was inactive: 0.822.

Turning to CCACAAAUGCUUCAAGCUATT against Defb29, the z-score was inactive: 0.125.

On to GGAUCUUUAAGUUUUCCCGTT against Kcnd2, for which the z-score was inactive: 0.297.

Consider GGAAAGUCGAUAAUGACAATT against Wdr12, for which the z-score was inactive: 0.449.

Turning to GCCAUUGGAGUAUAUCUUGTT against Olfr873, the z-score is inactive: -0.273.

For the sequence GCUAGGAAGAGAGUGAUCUTT against Alg1, the z-score is inactive: -1.03.

For GCACUUUAAGAGACAAUGUTT against Gpr63, the z-score is inactive: 0.302.

With “GGAAACUUUUGAUUGUAACTT against 2810021J22Rik”, the z-score is inactive: -0.0991.

With GGUGGUACCAAGUACAACUTT against Deaf1, the z-score is inactive: 1.22.

For GCUACUAUCACAUAUGCACTT against Olfr1122, the z-score was active: -2.09.

In the case of GCAGUUACACUGAAUACAUTT against Kctd8, the z-score is inactive: 0.633.

On to GCUUAAUAAUUUCAUCCAGTT against Brms1l, for which the z-score is active: 2.44.

With GGGUUCGAGGGUUCUUGUGTT against Gna12, the z-score was inactive: -1.18.

As to CCAUAUGUGAGAAACUACATT against Dbf4, the z-score is inactive: 0.258.

Turning to CCCUCAACUUUCAGAUCAGTT against Naa10, the z-score was active: 2.81.

As to GGAAUACGAGGAAUACCAGTT against Cplx4, the z-score is inactive: 0.506.

With GCACCUUGUCAACCAUUACTT against Kctd7, the z-score was inactive: 0.842.

Take CCAUAAGUAGGAUUCUAUCTT against Meis2: the z-score was inactive: -0.447.

With CGCCAUAGUCAUCUUCUAATT against AI987944, the z-score is inactive: -1.36.

As for GGGUUAUCGAUAGAAAAUATT against Rag2, the z-score was inactive: 0.0164.

With GGCUUUGCUGAAUGUCUCATT against Nrn1l, the z-score is inactive: 0.443.

As to GGGCCGAUCAUGGUUAACATT against Cpt1a, the z-score was inactive: -1.84.

As for CCGGAAAUUUCUGAUGGAGTT against Eif4ebp1, the z-score is active: 2.19.

Consider GCAUGCCCGUAAUCAAGUGTT against Racgap1, for which the z-score was inactive: 0.104.

Take GCACAGUAGUUCUUGCAUCTT against Olfr891: the z-score is inactive: 0.13.

As for GGGAGUUUCACUGAAGCCATT against Prkch, the z-score was inactive: -1.52.

In the case of GGAGGUGAUUUCGGGUAACTT against Ddr1, the z-score is inactive: 0.304.

As to GGCAAUUCCCAGCACGAUGTT against Usp43, the z-score is inactive: -1.24.

In the case of GCCCAAUAUACUCUAAGGGTT against Cdh20, the z-score was inactive: -0.306.

As to GGUGUAUUUCACGGGACCATT against Rela, the z-score was inactive: -1.

As for GCUAAUGACCUGUGCCAAGTT against Sftpb, the z-score was inactive: -0.24.

In the case of GCUUCAAAAGGACAGGUCATT against Galnt13, the z-score was inactive: -0.2.
